These are yes or no findings as the source states them, for the method shown. Binding seen in cells or lysates may run through a third protein. Some results given as binding are weak or reduced against the parent protein; the word gives no strength.
B1: ICA69 (Islet Cell Autoantigen 69 kD) (protein, UniProt P97411 1-478)
chain: MSGHKCYSWELQDRFAQDKSVVNKMQQKYWETKQAFIKATGKKEDEHVVASDADLDAKLELFHSIQRTCLDLSKAIVLYQKRICFLSQEENELGKFLRSQGFQDKTRAGKMMQATGKALCFSSQQRLALRNPLCRFHQEVETFRHRAISDTWLTVNRMEQYRTEYRGALLWMKDVSQELDPDLYKQMEKFRKVQTQVRLAKKNFDKLKMDVCQKVDLLGASRCNLLSHMLATYQTTLLHFWEKTSHTMAAIHESFKGYQPYEFTTLKSLQDPMKKLVEKEGKKTSWRENREAVAPEPRQLISLEDEHKDSSAYKTEEGTSVLSSVDKGSVHDTCSGPIDELLDGKPEEACLGPTAGTPEPESGDKDDLLLLNEIFSTSCLDEGEFSREWAAVFGDDQLKEPAPMGAQGEPDPKPQIGSGFLPSQLLDQNMKDLQASLQEPAKAASDLTAWFSLFADLDPLSNPDAVGKTDKEHELLNA

The chains behind the UniProt entries cited, without tags or fusion partners.
UniProt Q62083: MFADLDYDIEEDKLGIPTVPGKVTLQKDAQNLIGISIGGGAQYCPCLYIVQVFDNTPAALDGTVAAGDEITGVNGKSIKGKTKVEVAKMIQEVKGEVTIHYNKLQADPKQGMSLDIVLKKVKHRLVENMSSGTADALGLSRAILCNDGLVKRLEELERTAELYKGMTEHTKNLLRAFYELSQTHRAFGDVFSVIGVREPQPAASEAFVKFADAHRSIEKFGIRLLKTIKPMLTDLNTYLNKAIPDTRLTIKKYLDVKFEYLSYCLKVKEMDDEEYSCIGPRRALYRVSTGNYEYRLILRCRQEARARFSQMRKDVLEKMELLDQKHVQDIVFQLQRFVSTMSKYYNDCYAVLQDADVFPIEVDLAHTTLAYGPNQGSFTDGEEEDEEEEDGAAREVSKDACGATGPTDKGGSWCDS

Tests used:
[1] = target: T1, ICA69 (Islet Cell Autoantigen 69 kD) (mouse (endogenous in isolated islets)) (UniProt P97411); experiment: co-IP; in vivo co-IP from about 100 isolated islets solubilised in 1% Triton X-100 with protease inhibitors; anti-PICK1 or anti-ICA69 sera on Protein A Sepharose, 2-3 h at 4°C; Western blotting; peptide-block controls
T1 sequence: B1 chain

[2] = target: PICK1 (protein interacting with C-kinase 1) (mouse (endogenous in isolated islets)) (UniProt Q62083); experiment: as above

Molecule | binding [1] | binding [2]
PICK1 (protein interacting with C-kinase 1) (from UniProt Q62083 1-416) | binds | –
B1 | – | binds

Reference: article PMC3635858
